± gives the standard error. The uncertainty is large for many entries.
B1: glmS ribozyme (parent)
chain: AUAAAAGCGCCAGAACUACAGAAAUGUAGUUGACGAGGAGGAGGUUUAUCGAAUUUUCGGCGGAUGCCUCCAAA

Variants of: B1
Assay: self-cleavage kobs at 640 uM GlcN6P; higher = faster cleavage; RNA array
Settings: with glucosamine-6-phosphate
Procedure, shortened: (§1)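 Glucosamine-6-phosphate in HEPES/KCl/Mg(OAc)2 buffer, at 40 μM to 10 mM, was flowed over barcoded ribozyme variants transcribed in situ by E. coli RNA polymerase on sequenced MiSeq chips. Tracking was through a hybridised Cy3 probe at 37 °C. kobs, kcat and KM came from exponential decay fits and weighted Michaelis–Menten fits of normalised per-tile medians.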

Row | Variant | self-cleavage kobs at 640 uM GlcN6P [s⁻¹]
1 | A12U G37C | 1.58e-05 ± 7.9e-06
2 | A14G U31C C71A | 0.00136 ± 0.00071
3 | C50A C61A C68A | 4.71e-05 ± 3.4e-05
4 | G13A U69A | 2.13e-05 ± 1.5e-05
5 | G32U C58G C68A C70U | 5.4e-05 ± 2.9e-05
6 | A15C G66C | 2.65e-05 ± 2.4e-05
7 | A39C A42G C71A | 4.7e-05 ± 2.8e-05
8 | G37C C50U G51C C61U U69G | 2.5e-05 ± 2.4e-05
9 | A12C U55G G66U C67U | 6.08e-05 ± 3.1e-05
10 | C58G G63C C71A | 2.7e-05 ± 2.7e-05
11 | C16G C50U C68U C71A | 3.77e-05 ± 2.5e-05
12 | U30C U54A C68A | 2.99e-05 ± 2.9e-05
13 | C11G C50U C58G | 4.14e-05 ± 2.9e-05
14 | A15G C50U | 3.59e-05 ± 2.1e-05
15 | G13U U49C C50A G59A C70G | 2.75e-05 ± 2e-05
16 | U30C G37U A39G C68G | 5.17e-05 ± 2.6e-05
17 | A14U G32C C71A | 3.83e-05 ± 3.5e-05
18 | C11G U54C C67U C70A | 2.27e-05 ± 2.2e-05

For convenience, some entries already given.
Row | Variant | self-cleavage kobs at 640 uM GlcN6P [s⁻¹]
2 | A14G U31C C71A | 0.00136 ± 0.00071
3 | C50A C61A C68A | 4.71e-05 ± 3.4e-05
4 | G13A U69A | 2.13e-05 ± 1.5e-05
5 | G32U C58G C68A C70U | 5.4e-05 ± 2.9e-05
6 | A15C G66C | 2.65e-05 ± 2.4e-05
7 | A39C A42G C71A | 4.7e-05 ± 2.8e-05
8 | G37C C50U G51C C61U U69G | 2.5e-05 ± 2.4e-05
9 | A12C U55G G66U C67U | 6.08e-05 ± 3.1e-05
10 | C58G G63C C71A | 2.7e-05 ± 2.7e-05
11 | C16G C50U C68U C71A | 3.77e-05 ± 2.5e-05
12 | U30C U54A C68A | 2.99e-05 ± 2.9e-05
13 | C11G C50U C58G | 4.14e-05 ± 2.9e-05
14 | A15G C50U | 3.59e-05 ± 2.1e-05
15 | G13U U49C C50A G59A C70G | 2.75e-05 ± 2e-05

More results.

Row | Variant | self-cleavage kobs at 640 uM GlcN6P [s⁻¹]
19 | G13C U56A | 2.39e-05 ± 1.7e-05
20 | U56C C71A | 2.52e-05 ± 1.5e-05
21 | A12C C50A C68G | 3.72e-05 ± 2.7e-05
22 | A12G C34U C58U C68G | 4e-05 ± 3.3e-05
23 | A12G C67G C71G | 3.35e-05 ± 3.1e-05
24 | U47G G59C C70U | 4.17e-05 ± 2.8e-05
25 | G29U C67A C68A | 3e-05 ± 1.8e-05
26 | C16A C50A C70U | 5.64e-05 ± 2.9e-05
27 | C50G U54A U65A | 2.96e-05 ± 2.8e-05
28 | G29C G59U C68U | 3.43e-05 ± 2.6e-05
29 | A39G C68A | 4.03e-05 ± 2.7e-05
30 | U27G C61G C67U | 5.06e-05 ± 3.7e-05
31 | A14G A36U U56A C67A C70G | 2.95e-05 ± 2.7e-05
32 | G32U A39U C67G | 2.03e-05 ± 1.4e-05
33 | A14U G40A U46C | 3.93e-05 ± 2.1e-05
34 | U45C G66C C71A | 0.000576 ± 0.0003
35 | C11U U31C C61A | 3.04e-05 ± 2.1e-05

Variants of: B1
Assay: self-cleavage kobs at 2500 uM GlcN6P; higher = faster cleavage; RNA array
Settings: with glucosamine-6-phosphate
Procedure, shortened: as §1

Row | Variant | self-cleavage kobs at 2500 uM GlcN6P [s⁻¹]
36 | C50A C61A C68A | 3.07e-05 ± 2.4e-05
37 | A39C A42G C71A | 3.01e-05 ± 2.7e-05
38 | A12C U55G G66U C67U | 5.07e-05 ± 4.2e-05
39 | C16G C50U C68U C71A | 3.45e-05 ± 3.1e-05
40 | A12C C50A C68G | 3.9e-05 ± 2.3e-05
41 | A12G C34U C58U C68G | 2.8e-05 ± 2.7e-05
42 | C16A C50A C70U | 3.96e-05 ± 2.6e-05
43 | G29C G59U C68U | 4.8e-05 ± 3.2e-05
44 | U27G C61G C67U | 4.45e-05 ± 3.4e-05
45 | C11U U31C C61A | 3.3e-05 ± 2.7e-05

Variants of: B1
Assay: self-cleavage kobs at 10000 uM GlcN6P; higher = faster cleavage; RNA array
Settings: with glucosamine-6-phosphate
Procedure, shortened: as §1

Row | Variant | self-cleavage kobs at 10000 uM GlcN6P [s⁻¹]
46 | G13A U69A | 1.99e-05 ± 1.2e-05
47 | A12G C34U C58U C68G | 3.22e-05 ± 2.5e-05

Variants of: B1
Assay: self-cleavage kobs at 160 uM GlcN6P; higher = faster cleavage; RNA array
Settings: with glucosamine-6-phosphate
Procedure, shortened: as §1

Row | Variant | self-cleavage kobs at 160 uM GlcN6P [s⁻¹]
48 | G13U U49C C50A G59A C70G | 2.57e-05 ± 2.2e-05
